The experiment is described as follows: qHTS Assay for Modulators of Lamin A Splicing. Conditions: HeLa LMNA splicing GFP/RFP minigene ratio, 48 h. In a few lines:
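S3 HeLa stable clones carrying a lamin A-EGFP splicing minigene plus DsRed2 were seeded at 600 cells/well in Opti-MEM with 2% FBS, pin-dosed and incubated 48 h at 37°C. Acumen cytometry (488 nm) gave the GFP/RFP total-intensity ratio.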

[1] abbreviates: measured here: RFP viability control channel.
Where [2] appears, read: measured here: GFP splicing reporter channel.

The list shows a part of the results. These are further read-outs of the screen, such as a control signal, another cell line or another target. No call is given for them. The list favours compounds with an active or inconclusive main result. Words in brackets tell the shape of the fitted curve; partial curves, single points and poor fits give uncertain potencies.

In the case of `CC(=O)c1cccc(NC(=O)Nc2cnn(Cc3ccc(F)cc3)c2)c1`, the AC50 (as a rule, the concentration at which the activity in the assay is half-maximal) under setting [1] is 35.5 µM [rising, single point].

As to `Cc1ccc(NC(=O)CSc2nnc(-c3cccs3)o2)cc1S(=O)(=O)N1CCCCC1`, the AC50 under setting [1] was 12.6 µM [rising, single point].

In the case of `COC(=O)/C=C/C(=O)Nc1cccnc1`, the half-maximal activity concentration (AC50) under setting [1] is 6.31 µM [falling, single point].

Turning to `S=C(Nc1ccccc1)Nc1nc2ccccc2n1CCOc1ccccc1`, the AC50 was 35.5 µM [falling, single point] under setting [2] and 35.5 µM [falling, single point] under setting [1].

Consider `CCOc1ccccc1NC(=O)Cn1c(=O)nc(-c2ccccc2F)c2cc(Cl)ccc21`, for which, under setting [1], the AC50 is 0.0631 µM [rising, full curve, poor fit].

Consider `COc1ccc(/C=C2\SC(=O)NC2=S)cc1OC`, for which the AC50 under setting [1] was 17.8 µM [rising, partial curve, poor fit].

Turning to `CCn1c(/C=N/NC(=O)c2ccc(OC)cc2)nc2ccccc21`, the AC50 was 14.1 µM [rising, partial curve, poor fit] under setting [2] and 22.4 µM [rising, partial curve] under setting [1].

For `c1ccc(CNc2cc(-c3ccoc3)ncn2)cc1`, the AC50 under setting [2] is 22.4 µM [falling, partial curve, poor fit].

Take `OC(CN1C2=NCCN2c2ccccc21)c1ccccc1` (stereo unspecified): the half-maximal activity concentration (AC50) under setting [1] is 14.1 µM [rising, partial curve, poor fit].

As to `O=C(Nc1nc(-c2cccs2)cs1)c1cccc(S(=O)(=O)N2CCCCCC2)c1`, the AC50 under setting [2] was 35.5 µM [rising, single point] and the AC50 under setting [1] was 35.5 µM [rising, single point].

As to `Cc1cc(C)c(C)c(S(=O)(=O)Nc2ccccc2C(=O)NCCCn2ccnc2)c1C`, the AC50 under setting [1] was 31.6 µM [rising, single point].

Regarding `O=C(CCn1cnc2onc(-c3ccc(F)cc3)c2c1=O)Nc1cccc(C(F)(F)F)c1`, under setting [2], the AC50 is 11.2 µM [falling, single point].

With `CNS(=O)(=O)c1ccc(NCC2COc3ccccc3O2)c([N+](=O)[O-])c1` (stereo unspecified), the AC50 under setting [1] was 11.2 µM [rising, single point].

In the case of `Cc1ccc(S(=O)(=O)N(C)CC(=O)O/N=C(\N)c2ccc([N+](=O)[O-])cc2)cc1`, the concentration at half-maximal activity (AC50) under setting [1] was 35.5 µM [rising, single point].

For the compound `Cc1ccc(CNC(=O)C2CCN(C(=O)N3CC(C)Oc4ccc(Cl)cc43)CC2)cc1` (stereo unspecified), the AC50 runs as follows: under setting [2], 14.1 µM [rising, partial curve]; under setting [1], 31.6 µM [rising, single point].

Regarding `Cc1ccc(C)c(N2CCN(CCCNC(=O)c3cnn(-c4cccc(Cl)c4)c3C3CCN(C(=O)OC(C)(C)C)CC3)CC2)c1`, the AC50 is, setting by setting: under setting [2], 35.5 µM [falling, partial curve]; under setting [1], 35.5 µM [falling, partial curve].

Consider `CCn1nc(C(=O)O)c(=O)c2cc3c(cc21)OCO3`, for which the AC50 reads like this: under setting [2], 0.0891 µM [falling, full curve, poor fit]; under setting [1], 0.00501 µM [rising, full curve, poor fit].

Take `Cc1nn(-c2ccccc2)c(Cl)c1C(=O)OC(C)C(=O)NC(=O)NC1CCCCC1` (stereo unspecified): the AC50 under setting [1] is 35.5 µM [rising, single point].

`O=C(Nc1ccn(Cc2c(F)c(F)cc(F)c2F)n1)c1ccc(COc2ccccc2Cl)cc1`: the AC50 under setting [1] was 20 µM [rising, single point].

`Cc1ccc(C(=O)NCC(=O)OCC(=O)NCCc2ccccc2)s1`: the half-maximal activity concentration (AC50) under setting [1] was 1.78 µM [falling, full curve, poor fit].

Consider `COc1ccc(CCNc2oc(COc3ccccc3)nc2C#N)cc1`, for which the AC50 was 22.4 µM [rising, single point] under setting [2] and 31.6 µM [rising, single point] under setting [1].

On to `Cc1cc2cc(CN3C(=O)c4ccccc4C3=O)ccc2n1C`, for which, under setting [2], the AC50 is 11.2 µM [rising, partial curve].

For `COC(=O)c1ccc(CSc2ccc3nnc(-c4ccccc4)n3n2)o1`, under setting [1], the AC50 is 0.126 µM [rising, partial curve, poor fit].

Turning to `CCOC(=O)c1cnc2ccc(OCC)cc2c1NCc1cccnc1`, under setting [1], the AC50 was 14.1 µM [rising, single point].

`COC(=O)Cc1ccc(NC(=S)Nc2ccccn2)cc1`: the AC50 is 6.31 µM [falling, single point] under setting [2] and 3.98 µM [falling, full curve, poor fit] under setting [1].

As to `O=C(CSc1nc2[nH]ncc2c(=O)n1-c1ccccc1)c1ccc2c(c1)OCCO2`, the AC50 under setting [1] was 35.5 µM [rising, single point].

Consider `C=C(C)C1Cc2cc3ccc(=O)oc3cc2O1` (stereo unspecified), for which the AC50 under setting [1] is 0.00708 µM [rising, full curve, poor fit].

For `COc1ccc(S(=O)(=O)Nc2cccc(-c3ccc(N4CCCC4)nn3)c2)cc1F`, the half-maximal activity concentration (AC50) under setting [2] was 7.94 µM [falling, partial curve, poor fit].

`O=C(COC(=O)c1c2c(nc3ccccc13)/C(=C\c1cccs1)CCC2)Nc1ccccc1`: the AC50 under setting [2] was 11.2 µM [rising, single point] and the AC50 under setting [1] is 20 µM [rising, single point].

As to `COc1cc(/C=C(/C#N)c2nc3ccccc3[nH]2)ccc1OCC(=O)Nc1ccccc1C(C)C`, the half-maximal activity concentration (AC50) is, setting by setting: under setting [2], 20 µM [falling, single point]; under setting [1], 1 µM [falling, partial curve].

Regarding `O=C(CCn1c(SCC(=O)NCc2ccco2)nc2ccccc2c1=O)NCCc1ccccc1`, the AC50 under setting [1] was 7.08 µM [rising, partial curve].

As for `CCc1nc(NCc2ccco2)c2oc3ccccc3c2n1`, the AC50 under setting [2] is 8.91 µM [rising, partial curve, poor fit] and the AC50 under setting [1] was 11.2 µM [rising, single point].

With `O=C(O)C1OC(Oc2c(-c3ccc(O)c(O)c3)oc3cc(O)cc(O)c3c2=O)C(O)C(O)C1O` (stereo unspecified), the AC50 under setting [1] was 12.6 µM [rising, single point].

`Cc1oc2c(c1C(=O)NCc1ccccc1F)C1=NCCN1C=N2`: the AC50 under setting [2] is 0.0251 µM [falling, full curve, poor fit].

On to `O=C(NCC(c1ccc2c(c1)OCO2)N1CCN(c2ccccc2)CC1)C(=O)Nc1ccccc1F` (stereo unspecified), for which, under setting [2], the AC50 is 0.224 µM [falling, full curve].

(Values after PubChem BioAssay AID1487 (National Center for Advancing Translational Sciences (NCATS), 2009).)
